The target of test [1] is Histone demethylase Jumonji D3 (JMJD3), wild-type, FLAG-tagged (p3xFLAG-CMV-JMJD3 wild-type) (UniProt O15054). Description: co-IP; GSC 923 cells overexpressing FLAG-JMJD3 or JMJD3 MT; 500-1000 ug lysate, Santa Cruz Exacta-Cruz protocol, western blot for endogenous p53.
The target is the same in test [2]. Description: co-IP; HEK 293 cells transfected with FLAG-JMJD3 or JMJD3 MT; 500-1000 ug lysate, Santa Cruz Exacta-Cruz protocol, western blot for endogenous p53. (In general: A western blot detects proteins with antibodies after separation by electrophoresis.)

Chains of the proteins cited; added tags and fusions are not shown.
UniProt O15054: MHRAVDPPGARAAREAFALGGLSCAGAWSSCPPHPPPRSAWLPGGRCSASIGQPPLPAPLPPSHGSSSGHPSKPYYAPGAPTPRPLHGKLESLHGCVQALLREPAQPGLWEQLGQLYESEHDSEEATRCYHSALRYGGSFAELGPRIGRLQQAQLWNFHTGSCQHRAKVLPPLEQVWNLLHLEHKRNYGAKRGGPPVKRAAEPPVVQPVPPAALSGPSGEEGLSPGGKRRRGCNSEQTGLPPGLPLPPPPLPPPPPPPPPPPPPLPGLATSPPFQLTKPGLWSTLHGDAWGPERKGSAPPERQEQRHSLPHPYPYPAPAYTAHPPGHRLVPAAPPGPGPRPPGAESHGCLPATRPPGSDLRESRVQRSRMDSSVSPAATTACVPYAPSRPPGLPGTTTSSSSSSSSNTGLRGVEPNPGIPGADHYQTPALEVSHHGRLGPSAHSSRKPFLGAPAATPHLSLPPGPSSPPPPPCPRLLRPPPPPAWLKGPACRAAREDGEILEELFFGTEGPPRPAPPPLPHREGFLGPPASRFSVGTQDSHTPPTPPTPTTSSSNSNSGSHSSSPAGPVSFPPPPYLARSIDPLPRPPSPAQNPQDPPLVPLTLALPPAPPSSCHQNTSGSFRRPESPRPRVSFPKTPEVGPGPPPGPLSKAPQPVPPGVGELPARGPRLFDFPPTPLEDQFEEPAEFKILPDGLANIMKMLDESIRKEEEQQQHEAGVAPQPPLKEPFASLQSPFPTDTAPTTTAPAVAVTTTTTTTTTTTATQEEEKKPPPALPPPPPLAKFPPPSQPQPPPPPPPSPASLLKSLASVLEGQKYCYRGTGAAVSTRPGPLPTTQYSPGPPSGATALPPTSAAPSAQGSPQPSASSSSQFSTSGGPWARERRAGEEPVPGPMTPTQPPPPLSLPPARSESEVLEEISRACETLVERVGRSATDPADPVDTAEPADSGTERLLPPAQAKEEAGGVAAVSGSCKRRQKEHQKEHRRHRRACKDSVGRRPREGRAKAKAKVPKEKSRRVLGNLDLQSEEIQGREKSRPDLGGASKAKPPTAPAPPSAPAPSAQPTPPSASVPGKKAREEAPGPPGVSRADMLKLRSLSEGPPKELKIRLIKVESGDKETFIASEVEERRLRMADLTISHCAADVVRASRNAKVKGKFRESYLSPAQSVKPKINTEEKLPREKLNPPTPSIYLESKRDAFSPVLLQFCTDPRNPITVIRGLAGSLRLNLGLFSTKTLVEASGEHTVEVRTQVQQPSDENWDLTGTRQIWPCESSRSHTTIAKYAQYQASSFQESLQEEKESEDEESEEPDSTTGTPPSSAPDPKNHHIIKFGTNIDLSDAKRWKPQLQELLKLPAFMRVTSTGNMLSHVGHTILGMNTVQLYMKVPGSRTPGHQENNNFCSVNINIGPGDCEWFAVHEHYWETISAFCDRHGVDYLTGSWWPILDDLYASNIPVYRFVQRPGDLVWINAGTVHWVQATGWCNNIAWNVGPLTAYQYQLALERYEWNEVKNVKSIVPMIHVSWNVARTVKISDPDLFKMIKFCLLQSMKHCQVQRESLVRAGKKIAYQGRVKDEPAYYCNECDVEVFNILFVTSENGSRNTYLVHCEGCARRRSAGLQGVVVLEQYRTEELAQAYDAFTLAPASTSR

Results are given in words; binding and its absence hold for the method and conditions named. In cells and extracts the contact can be indirect. Some entries that bind do so weakly or less than the wild type.

For the substance “p53 protein, endogenous (from UniProt P04637 1-393)”, the binding entry in test [1] and in test [2] was “binds” each time.

The values are drawn from publication PMC3517524.
